# Reference: the supplement of paper PMC11348887
# Counter-ions that a name gives are not always drawn. The list shows a part of the results. Most values lie at the level of the controls, where differences are scatter.
# Tests used:
# Settings in all cases: 5 µM; treatment: days 7-14 after plating, readout day 21
# [1] = tested on: hPSC-derived cortical neurons (WA09); experiment: nucleus area z-score vs screen plate; higher = larger nuclei (more mature)
# [2] = tested on: hPSC-derived cortical neurons (WA09); experiment: total neurite length per nucleus (MAP2) z-score; higher = more neurite growth
# [3] = tested on: hPSC-derived cortical neurons (WA09); experiment: nucleus roundness z-score vs screen plate; higher = rounder nuclei (more mature)
# [4] = tested on: hPSC-derived cortical neurons (WA09); experiment: KCl-induced FOS+/EGR-1+ double-positive nuclei fraction z-score (KCl minus unstimulated); higher = stronger activity-induced IEG response
Compound,nucleus area z-score [1],total neurite length per nucleus (z-score) [2],nucleus roundness z-score [3],KCl-induced FOS+/EGR-1+ double-positive nuclei fraction z-score [4]
Cc1cc(/C=C/C#N)cc(C)c1Nc1ccnc(Nc2ccc(C#N)cc2)n1 [Rilpivirine],0.839,1.45,0.728,0.131
COc1cccc2cc(-c3nc([C@H]4CC[C@H](C(=O)O)CC4)n4ncnc(N)c34)[nH]c12,-0.565,-0.641,-1.28,-0.0869
Cc1cc(Cn2cnc3c2CC(C(=O)O)N(C(=O)C(c2ccccc2)c2ccccc2)C3)ccc1N(C)C (stereo unspecified),4.43,-0.538,-1.31,0.407
CC1=C(C(=O)O)N2C(=O)[C@@H](NC(=O)[C@H](N)c3ccccc3)[C@H]2SC1 [Cephalexin],-1.61,-0.551,1.56,-0.756
CC(ONC(=O)c1cc(C(F)(F)F)cc(C(F)(F)F)c1)C(=O)Nc1ccc(Cl)cc1 (stereo unspecified),0.196,0.927,0.66,0.544
Cc1ccc(NCCCc2ccccc2)c(N)c1,-0.949,0.169,2.22,0.572
C[C@@]1(C(=O)Nc2ccc(F)nc2)CCCN1c1nc(Nc2cc(C3CC3)n[nH]2)c2cccn2n1,-13.4,-5.55,-6.51,1.93
CN/C(=N\CCSCc1nc[nH]c1C)NC#N [Cimetidine],-0.155,0.0943,-0.124,0.979
Oc1ccc(Cc2nc3c(Cc4ccccc4)nc(-c4ccc(O)cc4)cn3c2O)cc1 [Coelenterazine],2.29,0.45,-0.545,-0.173
Nc1ccc(S(=O)(=O)Nc2nccs2)cc1 [Sulfathiazole],0.6,0.596,0.497,0.512
O=c1cc(-c2cccc3c2Sc2ccccc2S3)oc(N2CCOCC2)c1,0.567,0.472,0.741,1.38
COc1ccc(-c2cc(=O)c3c(O)cc(O[C@@H]4O[C@H](CO[C@@H]5O[C@@H](C)[C@H](O)[C@@H](O)[C@H]5O)[C@@H](O)[C@H](O)[C@H]4O)cc3o2)cc1O [Diosmin],-0.0304,-1.43,0.781,1.55
OCc1ccc(-c2ccc(-c3ccc(CO)s3)o2)s1,-0.477,-0.134,0.0191,-0.283
CN(C)CCC(c1ccc(Br)cc1)c1ccccn1 (stereo unspecified) [Brompheniramine hydrogen maleate],1.09,-0.241,0.556,0.00466
O=C(O)c1ccccc1O [Salicylic acid],-0.616,0.45,0.0424,-0.381
CC(C)NCC(O)COc1ccc(CCOCC2CC2)cc1 (stereo unspecified) [Betaxolol],0.731,-0.565,0.254,0.648
Cc1cccc(Nc2ccccc2C(=O)O)c1C [Mefenamic Acid],-0.257,0.467,0.784,1.25
COC(=O)c1ccc2c(c1)[nH]c1ncnc(NCCCN3CCCCC3)c12,-1.25,1.37,1.16,3.47
CCN[C@H]1C[C@H](C)S(=O)(=O)c2sc(S(N)(=O)=O)cc21 [Dorzolamide HCl],0.908,0.16,0.25,1.69
NCCCC(O)(P(=O)(O)O)P(=O)(O)O [Alendronate sodium trihydrate],-0.296,0.369,0.292,-0.424
Cc1c(CN2CCN(C(=O)[C@H](C)O)CC2)sc2c(N3CCOCC3)nc(-c3cnc(N)nc3)nc12,-6.9,-2.89,-1.97,-0.508
CCCCCCCCCCCCCCCCOP(=O)([O-])OCC[N+](C)(C)C [Miltefosine],1.23,0.0897,-0.0288,0.403
Cc1cc(Nc2cc(N3CCN(C)CC3)nc(Sc3ccc(NC(=O)C4CC4)cc3)n2)n[nH]1 [VX-680 (Tozasertib_ MK-0457)],1.01,2.02,0.183,-0.438
C[C@@H]1CN(c2c(F)c(N)c3c(=O)c(C(=O)O)cn(C4CC4)c3c2F)C[C@H](C)N1 [Sparfloxacin],0.933,0.361,-0.076,0.26
CC(=O)OCC(=O)[C@@]1(O)CC[C@H]2[C@@H]3CCC4=CC(=O)CC[C@]4(C)[C@H]3C(=O)C[C@@]21C [Cortisone acetate],-0.233,0.0622,0.852,-0.387
COc1ccc(CC2c3cc(OC)c(OC)cc3CC[N+]2(C)CCC(=O)OCCCCCOC(=O)CC[N+]2(C)CCc3cc(OC)c(OC)cc3C2Cc2ccc(OC)c(OC)c2)cc1OC (stereo unspecified) [Atracurium Besylate],0.652,0.36,1.61,0.782
Cc1cc(C(N)=O)ccc1-n1c(CCC(=O)O)ccc1-c1ccc(-n2ccnc2)cc1,0.912,0.418,0.317,1.2
Brc1c(NC2=NCCN2)ccc2nccnc12 [Brimonidine Tartrate],0.295,0.11,-0.164,1.19
CN1CCN(c2ccc(Nc3cc(-c4cccc(-n5ccc6cc(C7CC7)cc(F)c6c5=O)c4CO)cn(C)c3=O)nc2)CC1,-2.26,-0.435,-1.15,-0.204

# Rewritten with tabs: part of the list above.
Compound	nucleus area z-score [1]	total neurite length per nucleus (z-score) [2]	nucleus roundness z-score [3]	KCl-induced FOS+/EGR-1+ double-positive nuclei fraction z-score [4]
NCCCC(O)(P(=O)(O)O)P(=O)(O)O [Alendronate sodium trihydrate]	-0.296	0.369	0.292	-0.424
Cc1c(CN2CCN(C(=O)[C@H](C)O)CC2)sc2c(N3CCOCC3)nc(-c3cnc(N)nc3)nc12	-6.9	-2.89	-1.97	-0.508
